Reference: the supplement of paper PMC12462457
Where a name gives a salt, the structure may show the parent alone. ± gives the standard deviation of the averaged measurements. Some of the results follow. Single values are uncertain here, since repeats match poorly.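 Cell counts came from imaging DAPI-stained nuclei, excluding as dead any cells lacking phalloidin-stained cytoplasm. Counts per well were normalized to the median vehicle-well count on that plate, and the values were averaged over two replicate plates.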

Test system: OVCAR8
Test: cell count relative to DMSO vehicle (fold change); higher = more surviving senescent cells (less killing)
Settings: senescence inducer: cisplatin 10 µM 48 h, then 6 d recovery (CP senescent), exposure time 24 h

| Structure (SMILES) | cell count (compound dose 1 µM) | cell count (compound dose 5 µM) |
| --- | --- | --- |
| Nc1nc(OCc2ccccc2)c2nc[nH]c2n1 [O6-Benzylguanine] | 0.795 ± 0.079 | 0.749 ± 0.14 |
| CN(Cc1cnc2nc(N)nc(N)c2n1)c1ccc(C(=O)N[C@@H](CCC(=O)O)C(=O)O)cc1 [Methotrexate (disodium)] | 1.21 ± 0.016 | 0.95 ± 0.3 |
| CN(Cc1cnc2nc(N)nc(N)c2n1)c1ccc(C(=O)N[C@@H](CCC(=O)O)C(=O)O)cc1 [Methotrexate] | 1.12 ± 0.1 | 0.812 ± 0.026 |
| CCCC[C@@H](C=O)NC(=O)[C@H](CC(C)C)NC(=O)[C@H](CC(C)C)NC(C)=O | 1.09 ± 0.065 | 1.01 ± 0.12 |
| Nc1nc(NC2CC2)c2ncn([C@H]3C=C[C@@H](CO)C3)c2n1 [Abacavir] | 0.861 ± 0.065 | 0.481 ± 0.0092 |
| Nc1nc(NC2CC2)c2ncn([C@H]3C=C[C@@H](CO)C3)c2n1 | 1.13 ± 0.17 | 1.25 ± 0.085 |
| COc1cc(C(C)=O)ccc1O [Apocynin] | 1.14 ± 0.018 | 1.3 ± 0.11 |
| COc1cc(C=CC(=O)O)cc(OC)c1O | 0.76 ± 0.054 | 0.601 ± 0.2 |
| O=C(/C=C/c1ccc(O)c(O)c1)O[C@@H]1[C@H](O)C[C@@](O)(C(=O)O)C[C@H]1OC(=O)/C=C/c1ccc(O)c(O)c1 [4,5-Dicaffeoylquinic acid] | 1.09 ± 0.17 | 1.09 ± 0.082 |
| COC(=O)c1ccc([C@H]2c3[nH]c4ccccc4c3C[C@H](C(=O)OC)N2C(=O)CCl)cc1 | 0.0395 ± 0.0035 | 0.0305 ± 0.0078 |
| CCCCCCCCCCCCc1ccc(S(=O)(=O)Nc2nncs2)cc1 | 1.14 ± 0.052 | 0.871 ± 0.062 |
| C[C@H]1[C@H](C)CC[C@]2(C(=O)O)CC[C@]3(C)C(=CC[C@@H]4[C@@]5(C)C[C@@H](O)[C@H](O)[C@@](C)(CO)[C@@H]5CC[C@]43C)[C@H]12 [Asiatic acid] | 1.06 ± 0.18 | 0.814 ± 0.16 |
| CNCCN(C)Cc1c[nH]nc1-c1ccc(O[C@H]2C[C@H](OCCC3CCOCC3)C2)cc1 | 1.17 ± 0.046 | 0.857 ± 0.0057 |
| CN(C)CC#Cc1ccc(OCCCc2sc(N3CCc4cccc(C(=O)Nc5nc6ccccc6s5)c4C3)nc2C(=O)O)c(F)c1 | 0.736 ± 0.097 | 0.585 ± 0.14 |
| C=C(C)[C@@H](CC=C(C)C)C[C@@]12C[C@@H](CC=C(C)C)C(C)(C)[C@@](CC=C(C)C)(C(=O)C(C(=O)c3ccc(O)c(O)c3)=C1O)C2=O [Garcinol] | 0.9 ± 0.093 | 0.594 ± 0.31 |
| COc1ccc(C[C@@H]2c3cc(Oc4cc(C[C@@H]5c6cc(OC)c(OC)cc6CCN5C)ccc4O)c(OC)cc3CCN2C)cc1 [Neferine] | 1.25 ± 0.33 | 1.25 ± 0.064 |
| CC1(C)C(=O)N([C@H]2CCc3c(O)cccc32)c2nc(Nc3cccc(CN4CCCC4)c3)ncc21 | 1.11 ± 0.074 | 0.409 ± 0.14 |
| Cc1[nH]c2ccccc2c1CCNCc1ccc(/C=C/C(=O)NO)cc1 [Panobinostat (LBH589)] | 0.288 ± 0.055 | 0.232 ± 0.018 |
| COc1ccnc(C[S+]([O-])c2nc3cc(OC(F)F)ccc3[nH]2)c1OC (centres undefined) [Pantoprazole (sodium)] | 1.01 ± 0.14 | 0.651 ± 0.013 |
| COc1ccnc(C[S+]([O-])c2nc3cc(OC(F)F)ccc3[nH]2)c1OC (centres undefined) [Pantoprazole (sodium hydrate)] | 1.051 ± 0.0042 | 1.24 ± 0.11 |
| Nc1ccn([C@@H]2O[C@H](CO)[C@@H](O)[C@@H]2O)c(=O)n1 [Cytarabine] | 1.15 ± 0.32 | 1.25 ± 0.24 |
| COc1ccc(-c2coc3cc(O)ccc3c2=O)cc1O [Calycosin] | 1.09 ± 0.12 | 0.779 ± 0.18 |
| Cc1cc(Nc2nc(N[C@@H](C)c3ccc(F)cc3)c(C#N)cc2F)n[nH]1 | 1.04 ± 0.15 | 0.767 ± 0.24 |

| Structure (SMILES) | cell count (compound dose 1 µM) | cell count (compound dose 5 µM) |
| --- | --- | --- |
| CC(C)c1ccc2c(c1)c(SC(C)(C)C)c(CC(C)(C)C(=O)O)n2Cc1ccc(Cl)cc1 | 1.36 ± 0.15 | 0.92 ± 0.25 |
| N[C@@H](CCC(=O)Nc1ccc([N+](=O)[O-])cc1)C(=O)O [GPNA (hydrochloride)] | 1.0485 ± 0.00071 | 1.2 ± 0.033 |
| CCN1CCN(Cc2ccc(-c3cc4c(N[C@H](C)c5ccccc5)ncnc4[nH]3)cc2)CC1 | 0.966 ± 0.048 | 0.848 ± 0.025 |
| Cc1nc(Nc2ncc(C(=O)Nc3c(C)cccc3Cl)s2)cc(N2CCN(CCO)CC2)n1 [Dasatinib] | 0.0915 ± 0.012 | 0.077 ± 0.018 |
| COc1cc(N2CCC(N3CCN(C)CC3)CC2)ccc1Nc1ncnc(Nc2ccccc2S(=O)(=O)C(C)C)n1 | 1.1 ± 0.28 | 0.522 ± 0.17 |
| CN1C(=O)[C@@H](NC(=O)c2n[nH]c(Cc3ccccc3)n2)COc2ccccc21 | 1.097 ± 0.0057 | 1.15 ± 0.09 |
| Cc1cc(=O)oc2c(O)c(O)ccc12 | 0.952 ± 0.14 | 0.764 ± 0.2 |
| CC(C)(C)c1ccc(C(O)CCCN2CCC(C(O)(c3ccccc3)c3ccccc3)CC2)cc1 (centres undefined) | 0.943 ± 0.0099 | 0.483 ± 0.35 |
| CC(C)(c1ccc(OCC(O)CO)cc1)c1ccc(OCC(O)CCl)cc1 (centres undefined) | 1.11 ± 0.23 | 0.887 ± 0.43 |
| CCOC(=O)c1[nH]c2cc(Cl)ccc2c1C(C(=O)NC(C)(C)C)N(C=O)Cc1ccc(Cl)cc1 (centres undefined) | 1.05 ± 0.097 | 1.16 ± 0.069 |
| CCc1c(Cl)c(O)c(Cl)c(O)c1C(=O)O[C@H]1[C@H](O)[C@H](OC)[C@H](OC/C2=C\C=C\C[C@H](O)/C(C)=C/[C@H](CC)[C@@H](O[C@@H]3OC(C)(C)[C@@H](OC(=O)C(C)C)[C@H](O)[C@@H]3O)/C(C)=C/C(C)=C/C[C@@H]([C@@H](C)O)OC2=O)O[C@@H]1C [Fidaxomicin] | 1.23 ± 0.087 | 1.03 ± 0.18 |
| O=C1NCCCc2c1oc1ccc(O)cc21 | 1.24 ± 0.081 | 1.14 ± 0.26 |
| COc1cc(-c2cc(=O)c3c(O)c(OC)c(O)cc3o2)ccc1O [Jaceosidin] | 0.901 ± 0.1 | 0.69 ± 0.051 |
| CCCOc1ccc(S(=O)(=O)N2CCN(CCO)CC2)cc1-c1nc2c(CCC)cn(CC)c2c(=O)[nH]1 [Mirodenafil (dihydrochloride)] | 1.11 ± 0.025 | 1.22 ± 0.12 |
| N#Cc1c(NC(=O)c2cccc3ccccc23)sc2c1CCCC2 | 0.833 ± 0.034 | 0.877 ± 0.11 |
| CC(C)C(C)C(O)C(O)C(C)C1CCC2C3COC(=O)C4CC(O)C(O)CC4(C)C3CCC12C (centres undefined) [Brassinolide] | 1.08 ± 0.1 | 1.18 ± 0.24 |
| CCN(CC)CCCC(C)Nc1nc(C)cc(Nc2ccc3nc(C)cc(N)c3c2)n1 (centres undefined) | 1.07 ± 0.19 | 0.865 ± 0.019 |
| C#CCC(Cc1cnc2nc(N)nc(N)c2n1)c1ccc(C(=O)N[C@@H](CCC(=O)O)C(=O)O)cc1 (some centres undefined) [Pralatrexate] | 0.864 ± 0.23 | 0.956 ± 0.12 |
| C=C(C)[C@@H]1CC[C@]2(C(=O)OCC(N)(CO)CO)CC[C@]3(C)[C@H](CC[C@@H]4[C@@]5(C)CC[C@H](OC(C)=O)C(C)(C)[C@@H]5CC[C@]43C)[C@@H]12 | 1.08 ± 0.15 | 0.324 ± 0.064 |
| Nc1cccc(Nc2ncc(-c3ccc(Cl)cc3)o2)c1 | 1.529 ± 0.011 | 1.68 ± 0.23 |
| Cc1ccc2nc(N)[nH]c(=O)c2c1Sc1ccncc1 [Nolatrexed dihydrochloride] | 0.964 ± 0.025 | 1.1 ± 0.17 |
| C=C[C@]1(C)CC[C@@H](C(=C)C)C[C@H]1C(=C)C [β-Elemene] | 1.17 ± 0.2 | 1.17 ± 0.24 |
| C=C(C)[C@@H]1CC=C(CO)CC1 [(S)-(-)-Perillyl alcohol] | 1.05 ± 0.17 | 0.826 ± 0.062 |

Four records drawn at random from those above:

| Structure (SMILES) | cell count (compound dose 1 µM) | cell count (compound dose 5 µM) |
| --- | --- | --- |
| Cc1nc(Nc2ncc(C(=O)Nc3c(C)cccc3Cl)s2)cc(N2CCN(CCO)CC2)n1 [Dasatinib] | 0.0915 ± 0.012 | 0.077 ± 0.018 |
| CC1(C)C(=O)N([C@H]2CCc3c(O)cccc32)c2nc(Nc3cccc(CN4CCCC4)c3)ncc21 | 1.11 ± 0.074 | 0.409 ± 0.14 |
| CCCC[C@@H](C=O)NC(=O)[C@H](CC(C)C)NC(=O)[C@H](CC(C)C)NC(C)=O | 1.09 ± 0.065 | 1.01 ± 0.12 |
| C[C@H]1[C@H](C)CC[C@]2(C(=O)O)CC[C@]3(C)C(=CC[C@@H]4[C@@]5(C)C[C@@H](O)[C@H](O)[C@@](C)(CO)[C@@H]5CC[C@]43C)[C@H]12 [Asiatic acid] | 1.06 ± 0.18 | 0.814 ± 0.16 |

(further entries)

| Structure (SMILES) | cell count (compound dose 1 µM) | cell count (compound dose 5 µM) |
| --- | --- | --- |
| NS(=O)(=O)c1ccc(-n2nc(C(F)(F)F)cc2-c2ccc(Cl)cc2)cc1 | 1.26 ± 0.064 | 1.15 ± 0.042 |
| O=C1NC(=O)C(=Cc2ccc(-c3ccc(F)cc3)o2)S1 (stereo in doubt) | 0.807 ± 0.012 | 0.723 ± 0.22 |
| CN(C)C/C=C/C(=O)Nc1cc2c(Nc3ccc(F)c(Cl)c3)ncnc2cc1O[C@H]1CCOC1 [Afatinib] | 0.635 ± 0.2 | 0.449 ± 0.14 |
| C/C=C/C/C=C/CCC(=O)[C@H]1O[C@H]1C(N)=O [Cerulenin] | 1.14 ± 0.076 | 1.31 ± 0.24 |
| CC(C)S(=O)(=O)c1ccc2nccc(Nc3ccc4scnc4c3)c2c1 | 0.852 ± 0.26 | 0.87 ± 0.16 |
| Oc1cc(O)c2c(c1)O[C@H](c1ccc(O)c(O)c1)[C@H](O)[C@H]2c1c(O)cc(O)c2c1O[C@H](c1ccc(O)c(O)c1)[C@H](O)[C@H]2c1c(O)cc(O)c2c1O[C@H](c1ccc(O)c(O)c1)[C@H](O)C2 [Procyanidin C1] | 1.17 ± 0.043 | 1.05 ± 0.04 |
| C[N+](C)(C)CCC(=O)c1ccc2ccccc2c1 | 1.17 ± 0.043 | 0.983 ± 0.16 |
| C[C@H](NC(=O)C(=O)Nc1ccccc1C(C)(C)C)C(=O)N[C@@H](CC(=O)O)C(=O)COc1c(F)c(F)cc(F)c1F [Emricasan] | 1.15 ± 0.044 | 1.529 ± 0.0028 |
| CN(C)CCN1CCN(CCCN2c3ccccc3Sc3ccc(C(F)(F)F)cc32)CC1 [ZZW-115 (hydrochloride)] | 1.13 ± 0.1 | 0.678 ± 0.045 |
| CC[C@H](CO)Nc1nc(NCc2ccc(-c3ccccn3)cc2)c2ncn(C(C)C)c2n1 [(R)-CR8 (trihydrochloride)] | 0.777 ± 0.14 | 0.722 ± 0.1 |
| Nc1ncnc2n[nH]c(Nc3ccc(F)cc3)c12 | 0.897 ± 0.11 | 0.904 ± 0.11 |
| Cn1cc(-c2ccc3c(c2)CCN3C(=O)Cc2cccc(C(F)(F)F)c2)c2c(N)ncnc21 | 1.02 ± 0.085 | 0.988 ± 0.23 |
| Oc1cccc(-c2nc(N3CCOCC3)c3oc4ncccc4c3n2)c1 | 0.978 ± 0.059 | 0.696 ± 0.086 |
| Cc1cc(C)c(S(=O)(=O)Nc2cccc(C(F)(F)F)c2)c(C)c1 | 0.633 ± 0.14 | 0.364 ± 0.18 |
| CCN(CC)CCCCNc1ncc2cc(-c3cc(OC)cc(OC)c3)c(NC(=O)NC(C)(C)C)nc2n1 | 0.91 ± 0.16 | 0.761 ± 0.021 |
| Cc1ccc(Oc2ccnc3cc(-c4cnn(C5CCNCC5)c4)ccc23)cc1 | 0.854 ± 0.023 | 0.492 ± 0.1 |
| Cc1nc(-c2nc(-c3ccc(OC(F)(F)F)cc3)no2)nn1Cc1cccc(N2CCC(S(C)(=O)=O)CC2)c1 | 0.925 ± 0.098 | 1.05 ± 0.014 |
| C[C@H](CCC(=O)NCCS(=O)(=O)O)[C@H]1CC[C@H]2[C@@H]3[C@@H](O)C[C@@H]4C[C@H](O)CC[C@]4(C)[C@H]3CC[C@]12C [Tauroursodeoxycholate (Sodium)] | 1.1 ± 0.085 | 0.91 ± 0.027 |
| O=C1CCC(N2C(=O)c3ccccc3C2=O)C(=O)N1 (centres undefined) | 1.18 ± 0.09 | 0.948 ± 0.098 |
| Clc1ccc(C(Cn2ccnc2)OCc2csc3c(Cl)cccc23)c(Cl)c1 (centres undefined) [Sertaconazole (nitrate)] | 0.953 ± 0.1 | 0.654 ± 0.27 |
| C[C@H]1[C@H](OC(=O)CCC(=O)O)O[C@@H]2O[C@@]3(C)CC[C@H]4[C@H](C)CC[C@@H]1[C@@]24OO3 [Artesunate] | 1.09 ± 0.051 | 0.66 ± 0.48 |
